Values of other authors as cited in patent publication US6482411B1, “Methods of reducing bone loss with CD40 ligand” (Board of Regents, The University of Texas System, priority 1999, dated 2002).

Settings: 5 mg alendronate; cited from earlier work

NCCCC(O)(P(=O)(O)O)P(=O)(O)O [alendronate]
mean increase at the hip (bone mineral density): 1.9%
mean increase at the spine (bone mineral density): 3.5%
